B1: il2ra_site2_3nfp_sap_17_mot_HHH_b1_00660_af2_000000199_0001_40_57_H_._HHH_b1_02808_af2_0001_0001200012_0000001_0_0001 (protein)
chain: SSDPERLKILAEMIRALLKIVEDPEAQELVEEALELAEEALEKQDRELAAEASHLAAEAMEIRSS
B2: il2ra_site2_3nfp_sap_19_mot_HHH_b2_06797_000000207_0001_22_38_H_._038fe1aee5932669f1ddd6e60ea7a8eb_0001_0001_0000800055_0000001_0_0001 (protein)
chain: SEEEQRRLAQEIFELGDEDAFAALADIMFAKIKGDPEAEESAEKAIEEIKKKDPELARLLEEALK
B3: il2ra_site1_2b5i_sap_14_mot_HHH_b2_06557_000000121_0001_42_56_H_._HHH_b1_08067_0001_0000400026_0000001_0_0001_af2pred_dldesign_0_af2pred (protein)
chain: SSSSSAVGREIRRLMLEADALFKAGKEEEAKELLEKALALAKANKRAGFARLLEAMLEQLESSSS
B4: il2ra_site2_3nfp_sap_23_mot_HHH_b1_05208_af2_000000289_0001_23_38_H_._70ff24e2f3a5c12334ced80a47d8c0ca_0001_0001_0000200031_0000001_0_0001 (protein)
chain: SSSSSEDEERVEELLEEAKQIEDEEEARRILAEAAHIAWEANNSELFFEIAEVLYELIKRSSSSS
B5: il2ra_site2_2erj_normal_mot_HHH_b1_02757_000000121_0001_41_57_H_._HHH_b2_03975_0001_0000300020_0000001_0_af2pred_0001_af2pred (protein)
chain: SSSSSDEEEIEERVRELLERAKQIPDPEEALKHLQEASQLAVEGEDDELLELILEVARKSSSSSS
B6: il2ra_site1_3nfp_sap_24_mot_bca1cc675e315f79de6ed5a5a20872d8_0001_000000179_0001_36_50_H_._beb1d263b9c7401a962785d3a1373af0_0001_af2_0001_0000600024_0000001_0_0 … (protein)
chain: SSSSDEVIKRVQELLKRIKELLKEGDEEEARKLIEEVEELAEEENDPVLRLAAERFEEQVDSSSS
B7: il2ra_site2_2erj_sap_19_mot_HHH_b2_00789_000000198_0001_40_54_H_._HHH_b2_04610_0001_0000200004_0000001_0_0001 (protein)
chain: SSSSSWLHRLYELALEITRALSEGDEERVEELLEELRELAEEADSETAKKIVETLHRHLDSSSSS
B8: il2ra_site1_1z92_normal_mot_HHH_b2_01902_af2_000000252_0001_25_40_H_._HHH_b2_06820_0001_0000200028_0000001_0 (protein)
chain: SSSSDERLELDARAIVRVAVEAAGLSEEDREELEEIAQRLLEEGVDHLEVIQIIDKLALELSSSS
B9: il2ra_site2_3nfp_normal_mot_HHH_b2_02212_af2_000000162_0001_42_56_H_._cb30422a6ab91adc1f3d04a5d8d2ea43_0001_0001_0000200018_0000001_0 (protein)
chain: SKREQIELLQEIWEKGDSDAFFALAEIWWALETGDPEAEEEAERAIEEIKKKDPELARLLEEALK
B10: il2ra_site1_3nfp_sap_14_mot_HHH_b2_00162_af2_000000036_0001_22_38_H_._HHH_b1_02469_0001_0000400012_0000001_0_0001 (protein)
chain: SSSSDTAKRVSELLREAAERAREGDEERVKELLKEAKEIAEEFGDPIVERLIKQYEENLRRSSSS
B11: il2ra_site2_2erj_normal_mot_HHH_b2_01353_af2_000000049_0001_23_39_H_._HHH_b1_01973_af2_0001_0000800016_0000001_0 (protein)
chain: SSSSDEEVKELLEKAEELLEEGNPEEALRVVRRASELAFRLGNFELFAEVAELAREIAERGSSSS
B12: il2ra_site2_3nfp_normal_mot_HHH_b1_06589_000000230_0001_37_50_H_._HHH_b2_05061_0001_0000200006_0000001_0 (protein)
chain: SSSSSSDLEEEVQELLERLKKVSEEEREKLLAKATRLVFENNNPELYMLIAEALFELASSSSSSS
B13: il2ra_site1_1z92_sap_17_mot_HHH_b2_07916_000000165_0001_23_39_H_._HHH_b1_05042_0001_0000100008_0000001_0_0001 (protein)
chain: SSSSSSKKTVEWALELAELAIKTGSPERARFALRNARMIAERLNDEELLEEVEELLEEVNSSSSS
B14: il2ra_site2_3nfp_normal_mot_HHH_b1_05628_af2_000000064_0001_19_35_H_._HHH_b1_04724_af2_0001_0000300023_0000001_0_af2pred_0001_af2pred (protein)
chain: SSSSDLEERVRELLEEAQELLERGNPEEAEKVVLRAASLASEAGDFELFAAANRLAEKIHKSSSS
B15: il2ra_site1_3nfp_normal_mot_0831bd5750e541fe76d95d22628dacf8_0001_000000198_0001_16_33_H_._HHH_b2_03065_af2_0001_0000200009_0000001_0 (protein)
chain: SSSSDVEEEVRKILEEAEELLRKGDFKRALELIHEAQELAEENNDDEARELLKQFARKFAGSSSS
B16: il2ra_site2_2erj_normal_mot_HHH_b2_00789_000000198_0001_40_54_H_._HHH_b1_07623_af2_0001_0000500027_0000001_0 (protein)
chain: SSSSSDTLEVLEELAEELFEEGDRSALELILRYLELSLKQTGDPEIEKAYEKVRELLERLSSSSS
B17: il2ra_site2_3nfp_sap_14_mot_HHH_b1_05122_af2_000000298_0001_39_52_H_._HHH_b2_02238_af2_0001_0000800042_0000001_0_0001 (protein)
chain: SSSSDAEEYIKAALALAERAARRNDPAAERHLKLIRLAIESNGDEEAEELLEEIERLLRELSSSS
B18: il2ra_site1_1z92_normal_mot_HHH_b1_04602_000000153_0001_1_19_H_._HHH_b1_00326_0001_0000100014_0000001_0_af2pred_0001_af2pred_1_swapped (protein)
chain: SSSSDKRFALEVVAKLAARLHLSLEQLKELHELALELLERGLSEEEIEEELEKLAEELKKSSSSS
B19: il2ra_site1_3nfp_normal_mot_HHH_b1_05162_af2_000000139_0001_1_18_H_._HHH_b1_04304_0001_0000400051_0000001_0_af2pred_0001_af2pred (protein)
chain: SSSSSEEQKEFQEIAREVLKLIQEGDHEEAERLIERLEELARKANSPAAKLLVERLKKRVSSSSS

From publication PMC10163288 come the findings set out here.

The other results are listed elsewhere or left out. A value given as a limit tells only on which side of the number the result lay.

For orientation: apparent Kd means a dissociation constant that holds for the conditions of the assay.

This test concerns the target il2ra, P01589. Description: yeast display titration.
Turning to B1, the “apparent Kd” value is “inactive: no binding seen”.
For B2, the “apparent Kd” value is “inactive: no binding seen”.
For B3 the value was “inactive: no binding seen”; for B4, inactive: > 0.151 µM.
Take B5: the “apparent Kd” value was “inactive: no binding seen”.
For B6 the value was “inactive: no binding seen”; for B7, “inactive: no binding seen”; for B8, “inactive: no binding seen”.
For B9 the value was “inactive: no binding seen”; for B10, “inactive: no binding seen”.
For the molecule B11, the “apparent Kd” value is “inactive: no binding seen”.
With B12 the entry was “inactive: no binding seen”.
For B13 the value was inactive: > 1.15 µM; for B14, “inactive: no binding seen”.
For B15, the “apparent Kd” value was “inactive: no binding seen”.
For B16 the value was “inactive: no binding seen”.
Turning to B17, the “apparent Kd” value is “inactive: no binding seen”.
With B18 the entry was “inactive: no binding seen”.
With B19 the entry was “inactive: no binding seen”.
